Data taken from PubChem BioAssay AID1224904, deposited by Broad Institute (2016).

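Control-channel Italica luciferase signal in doxycycline-induced 293T-iDUX4 cells, given as percent activity after a 24-hour treatment. The test concentration is not given here. Percent change in the Italica control signal; more negative values mean stronger inhibition, which points to nonspecific, tet-on or cytotoxic effects.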

Values are in %. Common to all entries: measured here: Italica tet-on control reporter. Part of the compounds only, not a random draw; the main read-out is not listed here.

SMILES | activity change (%)
O=S(=O)(c1cccs1)N1CCCCN2[C@H](CO)[C@H](c3ccc(Br)cc3)[C@@H]2C1 | 12.61
C[C@H](NC(=O)C[C@@H]1CC[C@@H]2[C@H](COC[C@@H](O)CN2Cc2ccc(C(F)(F)F)cc2)O1)c1ccccc1 | -3.438
Cc1ccccc1S(=O)(=O)N1C[C@H](O)COC[C@H]2O[C@@H](CC(=O)N3CCC(Cc4ccccc4)CC3)CC[C@@H]21 | -17.83
COc1ccccc1C#Cc1ccc2c(c1)[C@H]1[C@H](CCN1C(=O)c1ccccc1)[C@H](CO)N2 | -10.8
C[C@H](CO)N1C[C@H](C)[C@H](CN(C)S(=O)(=O)c2ccc(C(F)(F)F)cc2)OCc2ccccc2-c2c(n(C)c3ccccc23)C1=O | -62.15
O=C(C[C@H]1C[C@@H]2c3cc(NC(=O)c4ccc5c(c4)OCO5)ccc3O[C@@H]2[C@@H](CO)O1)NCc1ccc(Cl)cc1 | -36.1
N#C[C@H]1[C@H](c2ccccc2-c2ccccc2)[C@@H](CO)N1C(=O)NC1CCCC1 | 1.282
COc1ccccc1S(=O)(=O)N1C[C@@H]2N[C@H](C1)C2c1ccc(-c2cccc(C)c2)cc1 (stereo partly drawn) | -12.46
CC(C)NC(=O)N1CC(=O)N2[C@H](CO)[C@@H](c3ccc(/C=C/c4ccccc4)cc3)[C@H]2C1 | -48.65
CCCC#Cc1ccc([C@@H]2[C@H]3CN(C(=O)NC4CCCC4)CCCCN3[C@H]2CO)cc1 | -4.946
COCC(=O)N1CC[C@H]2[C@H](CO)Nc3ccc(-c4cccc(C(=O)N(C)C)c4)cc3[C@H]21 | 5.635
CCCC#Cc1ccc([C@@H]2[C@@H](CO)N3C(=O)CN(S(=O)(=O)c4ccccc4C)C[C@H]23)cc1 | -7.922
COc1ccc2c3c([nH]c2c1)[C@H](CO)N(CC1CC1)CC31CN(C(=O)c2ccc(F)cc2)C1 | -21.73
COc1cccc(CN2C[C@@H]3N[C@H](C2)C3c2ccc(-c3ccccc3C)cc2)c1 (stereo partly drawn) | -7.431
Cn1cnc(S(=O)(=O)N2CCCCN3[C@@H](CO)[C@@H](c4ccc(C#CC5CCCC5)cc4)[C@@H]3C2)c1 | -14.68
O=C(C1CC1)N1CC[C@@H]2[C@H]1c1cc(C#Cc3ccccc3F)ccc1N[C@@H]2CO | -13.07
O=C(Cc1ccccn1)N1CCCCN2[C@H](CO)[C@@H](c3ccc(C#Cc4ccccc4)cc3)[C@@H]2C1 | -46.72
CCCC(=O)Nc1ccc2c(c1)OC[C@@H](C)N(CCc1ccccc1)C[C@H](C)[C@@H](OC)CN(C)C2=O | -4.974
O=C(c1cccc(F)c1)N1CC[C@H]2[C@H](CO)Nc3ccc(-c4cccc(F)c4)cc3[C@H]21 | -29.58
N#Cc1ccc(-c2ccc3c(c2)[C@H]2[C@H](CCN2S(=O)(=O)c2ccccc2F)[C@@H](CO)N3)cc1 | -43.7
C[C@H](CO)N1C[C@H](C)[C@H](CN(C)C(=O)Nc2ccc(-c3ccccc3)cc2)OCc2ccccc2-c2c(n(C)c3ccccc23)C1=O | -23.8
O=C(C[C@H]1C[C@H]2c3cc(NC(=O)Cc4ccncc4)ccc3O[C@H]2[C@@H](CO)O1)NCc1ccc(-c2ccccc2)cc1 | 0.1571
COc1cccc(C#Cc2ccc([C@@H]3[C@@H](CO)N4C(=O)CN(S(=O)(=O)c5ccccc5C)C[C@H]34)cc2)c1 | -3.723
N#Cc1ccc(-c2ccc([C@@H]3[C@H]4CNC[C@@H]3N4Cc3ccc4c(c3)OCO4)cc2)cc1 | -90.08
CN(C)C(=O)[C@H]1[C@H](CO)[C@H]2Cn3c(ccc(C4=CCCC4)c3=O)[C@H]2N1Cc1ccc2c(c1)OCO2 | -5.159
C[C@H](CO)N1C[C@H](C)[C@H](CN(C)Cc2cccc(C(F)(F)F)c2)OCc2ccccc2-c2c(n(C)c3ccccc23)C1=O | -51.18
COc1ccccc1CN(C)C[C@H]1OCc2ccccc2-c2c(n(C)c3ccccc23)C(=O)N([C@H](C)CO)C[C@@H]1C | -11.58
COc1ccc2c3c([nH]c2c1)[C@@H](CO)N(Cc1ccccc1OC)CC31CN(S(C)(=O)=O)C1 | -20.06
C/C=C/c1ccccc1[C@@H]1[C@@H](CO)N(S(=O)(=O)c2cccc(F)c2)[C@H]1C#N | -6.509
CC(C)COC(=O)N(C)C[C@@H]1OCc2ccccc2-c2ccccc2C(=O)N([C@H](C)CO)C[C@@H]1C | -13.47
CC(C)CC#Cc1ccc([C@H]2[C@H]3CN(S(=O)(=O)c4ccccc4)CC(=O)N3[C@H]2CO)cc1 | 4.299
CCCC#Cc1ccc([C@H]2[C@H](CO)N3C(=O)CN(C(=O)Nc4ccccc4F)C[C@@H]23)cc1 | -28.93
O=S(=O)(c1cccs1)N1CCCCN2[C@H](CO)[C@H](c3ccc(-c4ccccc4)cc3)[C@H]2C1 | -1.037
Cc1ccccc1S(=O)(=O)N1CC[C@@H]2[C@H](CO)Nc3ccc(-c4ccccc4F)cc3[C@@H]21 | -12
COc1ccc2c3c([nH]c2c1)[C@@H](CO)N(C(=O)c1cccc(F)c1)CC31CN(C(=O)c2ccccc2)C1 | -7.788
O=C(C[C@H]1CC[C@@H]2[C@H](COC[C@H](O)CN2Cc2ccc(Oc3ccccc3)cc2)O1)N1CCN(c2ccccc2)CC1 | -67.63
O=C(C[C@@H]1CC[C@H]2[C@@H](COC[C@@H](O)CN2Cc2cc(F)ccc2F)O1)NCc1ccc(Cl)cc1 | -31.86
Cc1ccccc1S(=O)(=O)N1CC[C@H]2[C@H](CO)Nc3ccc(-c4cccc(C#N)c4)cc3[C@H]21 | -32
COc1ccc(C#Cc2ccc([C@H]3[C@@H](CO)N4CCCCN(C(=O)Nc5cccc(F)c5)C[C@H]34)cc2)cc1 | -91.01
Cc1ccccc1S(=O)(=O)N1CCCCN2[C@H](CO)[C@H](c3ccc(-c4cccnc4)cc3)[C@H]2C1 | -8.595
N#Cc1cccc(-c2ccc(C3[C@@H]4CN(S(=O)(=O)c5ccccc5F)C[C@H]3N4)cc2)c1 (stereo partly drawn) | -45.44
COc1ccccc1-c1ccc([C@@H]2[C@@H](CO)N3CCCCN(C(=O)NC4CCCC4)C[C@@H]23)cc1 | 0.6445
O=C(C[C@@H]1C[C@H]2c3cc(NC(=O)c4ccc5c(c4)OCO5)ccc3O[C@H]2[C@@H](CO)O1)NC1CCCCC1 | -24.24
Cc1ccccc1-c1ccc([C@H]2[C@@H](CO)N3CCCCN(S(=O)(=O)Cc4ccccc4)C[C@@H]23)cc1 | -23.91
O=S(=O)(Cc1ccccc1)N1CCCCN2[C@@H](CO)[C@H](c3ccc(-c4ccc(F)cc4)cc3)[C@@H]2C1 | -9.603
O=C(C[C@@H]1CC[C@H]2[C@@H](COC[C@H](O)CN2Cc2ccc(F)cc2)O1)NCCc1ccccc1 | -5.415
O=C(Cc1ccccc1)N1CCCCN2[C@H](CO)[C@H](c3ccc(C#CC4(O)CCCC4)cc3)[C@H]2C1 | -11.9
OC[C@@H]1[C@H](c2ccccc2)C2(CN(Cc3nccs3)C2)N1CCC(F)(F)F | -9.584
COc1ccc2c3c([nH]c2c1)[C@@H](CO)N(Cc1ccccc1F)CC31CN(C(=O)C2CCCC2)C1 | -55.17
COc1ccc2c3c(n(C)c2c1)[C@H](CO)N(C)CC31CCN(S(=O)(=O)c2cccs2)CC1 | -17.25
O=C(C[C@@H]1CC[C@@H](NC(=O)c2ccc3c(c2)OCO3)[C@@H](CO)O1)NCc1ccc(Oc2ccccc2)cc1 | -18.8
C[C@H]1CN([C@@H](C)CO)C(=O)CCCn2cc(nn2)CO[C@@H]1CN(C)C(=O)Nc1ccc2c(c1)OCO2 | 6.216
COc1ccc2c3c(n(C)c2c1)[C@H](CO)N(C(=O)Nc1cccc(F)c1)CC31CCN(C)CC1 | -12
O=C(C[C@@H]1CC[C@H]2[C@@H](COC[C@@H](O)CN2C(=O)c2ccccc2F)O1)NCc1ccc(F)cc1 | -6.341
COc1cccc(S(=O)(=O)Nc2ccc3c(c2)C(=O)N(C)C[C@H](OC)[C@H](C)CN(Cc2ccccc2F)[C@@H](C)CO3)c1 | -17.34
O=S(=O)(c1cccs1)N1CCCCN2[C@H](C1)[C@H](c1ccc(C3=CCCC3)cc1)[C@@H]2CO | 6.283
COc1ccc2c3c([nH]c2c1)[C@@H](CO)N(Cc1ccccc1)CC31CN(S(C)(=O)=O)C1 | -9.271
C[C@H](CO)N1C[C@H](C)[C@@H](CN(C)C(=O)CCC(F)(F)F)OCc2ccccc2-c2c(n(C)c3ccccc23)C1=O | -46.97
O=C(C[C@@H]1CC[C@@H]2[C@H](COC[C@H](O)CN2Cc2cccc(C(F)(F)F)c2)O1)NCc1ccc(Cl)cc1 | -3.469
COc1cccc(S(=O)(=O)Nc2ccc3c(c2)[C@H]2C[C@H](CC(=O)NCc4ccc(Cl)cc4)O[C@H](CO)[C@H]2O3)c1 | -52.09
O=C(Cc1cccnc1)N1CC(=O)N2[C@H](C1)[C@H](c1ccc(/C=C/c3ccccc3)cc1)[C@@H]2CO | -22.34
O=C(C[C@H]1CC[C@@H]2[C@H](COC[C@@H](O)CN2Cc2ccc(Oc3ccccc3)cc2)O1)N1CCN(c2ccccc2)CC1 | -86.21
O=C(C[C@H]1C[C@@H]2c3cc(NC(=O)c4ccc5c(c4)OCO5)ccc3O[C@@H]2[C@@H](CO)O1)NCc1cccc(F)c1 | -12.67
COc1ccccc1CN1CC[C@@H]2[C@H]1c1cc(-c3cccc(F)c3)ccc1N[C@@H]2CO | -11.5
O=C(C[C@H]1CC[C@@H]2[C@H](COC[C@@H](O)CN2CCC(F)(F)F)O1)NCc1ccc(Oc2ccccc2)cc1 | -8.788

Repeated from the top, 5 entries:

- O=S(=O)(c1cccs1)N1CCCCN2[C@H](CO)[C@H](c3ccc(Br)cc3)[C@@H]2C1 : activity change 12.61%
- C[C@H](NC(=O)C[C@@H]1CC[C@@H]2[C@H](COC[C@@H](O)CN2Cc2ccc(C(F)(F)F)cc2)O1)c1ccccc1 : activity change -3.438%
- Cc1ccccc1S(=O)(=O)N1C[C@H](O)COC[C@H]2O[C@@H](CC(=O)N3CCC(Cc4ccccc4)CC3)CC[C@@H]21 : activity change -17.83%
- COc1ccccc1C#Cc1ccc2c(c1)[C@H]1[C@H](CCN1C(=O)c1ccccc1)[C@H](CO)N2 : activity change -10.8%
- C[C@H](CO)N1C[C@H](C)[C@H](CN(C)S(=O)(=O)c2ccc(C(F)(F)F)cc2)OCc2ccccc2-c2c(n(C)c3ccccc23)C1=O : activity change -62.15%